According to the supplement of paper PMC11438910:
The other results are listed elsewhere or left out. Most of these values are background signal.

Key:
Experiment in all cases: fluorescence intensity of antibody binding to polysaccharide-coupled beads; higher = stronger binding
[1] = biological target: pneumococcal polysaccharide Pn9N
[2] = biological target: pneumococcal polysaccharide Pn9V
[3] = biological target: pneumococcal polysaccharide C-Poly-1
[4] = biological target: pneumococcal polysaccharide C-Poly-2
[5] = biological target: pneumococcal polysaccharide Pn1
[6] = biological target: pneumococcal polysaccharide Pn10A
[7] = biological target: pneumococcal polysaccharide Pn10B
[8] = biological target: pneumococcal polysaccharide Pn10C
[9] = biological target: pneumococcal polysaccharide Pn10F
[10] = biological target: pneumococcal polysaccharide Pn11A
[11] = biological target: pneumococcal polysaccharide Pn11B
[12] = biological target: pneumococcal polysaccharide Pn11C
[13] = biological target: pneumococcal polysaccharide Pn11D
[14] = biological target: pneumococcal polysaccharide Pn11F
[15] = biological target: pneumococcal polysaccharide Pn12A
[16] = biological target: pneumococcal polysaccharide Pn12B
[17] = biological target: pneumococcal polysaccharide Pn12F
[18] = biological target: pneumococcal polysaccharide Pn13
[19] = biological target: pneumococcal polysaccharide Pn14
[20] = biological target: pneumococcal polysaccharide Pn15A
[21] = biological target: pneumococcal polysaccharide Pn15B
[22] = antibody concentration 2337.65 ng/mL
[23] = antibody concentration 12500 ng/mL
[24] = antibody concentration 0.1 ng/mL
[25] = antibody concentration 0.534724 ng/mL
[26] = antibody concentration 2.8593 ng/mL
[27] = antibody concentration 15.2894 ng/mL
[28] = antibody concentration 81.7561 ng/mL
[29] = antibody concentration 437.17 ng/mL

B1: 4-127.1 (protein)
chain 1: QVQLQESGPGLVKPSETLSLTCAVSDYSINTGHGWTWIRQPPGKGLEWIGYIGGSSGSPNYNPSLKSRVTISKDTSKNELSLKLNSVTAADTAVYYCARRIPADRSGNDFWGQGVLVTVSS
chain 2: QSVLTQPPSVSGDPGQRVTISCTGSSSNIGGFYGYWYQQFPGTAPKLLIYDNNKRPSGISDRFSGSKSGTSASLTITGLQPGDEADYYCGSWDSSLSAHVFGSGTKLTVL
[1]; [22]
  fluorescence intensity: 16.5 MFI
[1]; [23]
  fluorescence intensity: 25 MFI
[2]; [24]
  fluorescence intensity: 15.2 MFI
[2]; [25]
  fluorescence intensity: 14.5 MFI
[2]; [26]
  fluorescence intensity: 13.5 MFI
[2]; [27]
  fluorescence intensity: 14.2 MFI
[2]; [28]
  fluorescence intensity: 15 MFI
[2]; [29]
  fluorescence intensity: 16 MFI
[2]; [22]
  fluorescence intensity: 18 MFI
[2]; [23]
  fluorescence intensity: 23.2 MFI

B2: 4-80.1 (protein)
chain 1: QVQLQESGPGLVKPSETLSLTCAVSGIPISTYWWSWIRQTPEKGLEWIGEIDGNGGGTNYNPSLQSRVTFSKDASKNQFSLRLNSVTAADTAVFYCARLWGNAYWGQGVLVTVSS
chain 2: DVVMTQSPLSLPINPGQPASISCRSSQSLVYSDGKTYLTWYQQKPGQPPRRLIYQVSKRDSGVPDRFSGSGAGTDFTLKISRVESEDVGIYYCLQGTHLPYTFGQGTKVEIK
[3]; [24]
  fluorescence intensity: 27.2 MFI
[3]; [25]
  fluorescence intensity: 25.5 MFI
[3]; [26]
  fluorescence intensity: 27 MFI
[3]; [27]
  fluorescence intensity: 27 MFI
[3]; [28]
  fluorescence intensity: 39.5 MFI
[3]; [29]
  fluorescence intensity: 83.5 MFI
[3]; [22]
  fluorescence intensity: 148 MFI
[3]; [23]
  fluorescence intensity: 216 MFI
[4]; [24]
  fluorescence intensity: 21 MFI
[4]; [25]
  fluorescence intensity: 20 MFI
[4]; [26]
  fluorescence intensity: 20 MFI
[4]; [27]
  fluorescence intensity: 22.5 MFI
[4]; [28]
  fluorescence intensity: 23.8 MFI
[4]; [29]
  fluorescence intensity: 34.5 MFI
[4]; [22]
  fluorescence intensity: 51.5 MFI
[4]; [23]
  fluorescence intensity: 100 MFI
[5]; [24]
  fluorescence intensity: 14 MFI
[5]; [25]
  fluorescence intensity: 13 MFI
[5]; [26]
  fluorescence intensity: 14.8 MFI
[5]; [27]
  fluorescence intensity: 18.8 MFI
[5]; [28]
  fluorescence intensity: 64.5 MFI
[5]; [29]
  fluorescence intensity: 262 MFI
[5]; [22]
  fluorescence intensity: 462 MFI
[5]; [23]
  fluorescence intensity: 566 MFI
[6]; [24]
  fluorescence intensity: 27 MFI
[6]; [25]
  fluorescence intensity: 26.2 MFI
[6]; [26]
  fluorescence intensity: 27.2 MFI
[6]; [27]
  fluorescence intensity: 32.5 MFI
[6]; [28]
  fluorescence intensity: 88 MFI
[6]; [29]
  fluorescence intensity: 438 MFI
[6]; [22]
  fluorescence intensity: 856 MFI
[6]; [23]
  fluorescence intensity: 1080 MFI
[7]; [24]
  fluorescence intensity: 26 MFI
[7]; [25]
  fluorescence intensity: 26.5 MFI
[7]; [26]
  fluorescence intensity: 34.2 MFI
[7]; [27]
  fluorescence intensity: 164 MFI
[7]; [28]
  fluorescence intensity: 612 MFI
[7]; [29]
  fluorescence intensity: 2520 MFI
[7]; [22]
  fluorescence intensity: 3680 MFI
[7]; [23]
  fluorescence intensity: 3500 MFI
[8]; [24]
  fluorescence intensity: 16.2 MFI
[8]; [25]
  fluorescence intensity: 16.5 MFI
[8]; [26]
  fluorescence intensity: 17 MFI
[8]; [27]
  fluorescence intensity: 18.5 MFI
[8]; [28]
  fluorescence intensity: 33.5 MFI
[8]; [29]
  fluorescence intensity: 312 MFI
[8]; [22]
  fluorescence intensity: 898 MFI
[8]; [23]
  fluorescence intensity: 1360 MFI
[9]; [24]
  fluorescence intensity: 20.5 MFI
[9]; [25]
  fluorescence intensity: 20.5 MFI
[9]; [26]
  fluorescence intensity: 21.2 MFI
[9]; [27]
  fluorescence intensity: 33 MFI
[9]; [28]
  fluorescence intensity: 128 MFI
[9]; [29]
  fluorescence intensity: 714 MFI
[9]; [22]
  fluorescence intensity: 1400 MFI
[9]; [23]
  fluorescence intensity: 1710 MFI
[10]; [24]
  fluorescence intensity: 30.5 MFI
[10]; [25]
  fluorescence intensity: 30 MFI
[10]; [26]
  fluorescence intensity: 31.5 MFI
[10]; [27]
  fluorescence intensity: 34.5 MFI
[10]; [28]
  fluorescence intensity: 49.8 MFI
[10]; [29]
  fluorescence intensity: 224 MFI
[10]; [22]
  fluorescence intensity: 408 MFI
[10]; [23]
  fluorescence intensity: 493 MFI
[11]; [24]
  fluorescence intensity: 26.8 MFI
[11]; [25]
  fluorescence intensity: 26 MFI
[11]; [26]
  fluorescence intensity: 28.2 MFI
[11]; [27]
  fluorescence intensity: 36.8 MFI
[11]; [28]
  fluorescence intensity: 122 MFI
[11]; [29]
  fluorescence intensity: 885 MFI
[11]; [22]
  fluorescence intensity: 1960 MFI
[11]; [23]
  fluorescence intensity: 2320 MFI
[12]; [24]
  fluorescence intensity: 22.2 MFI
[12]; [25]
  fluorescence intensity: 22 MFI
[12]; [26]
  fluorescence intensity: 21.8 MFI
[12]; [27]
  fluorescence intensity: 21.5 MFI
[12]; [28]
  fluorescence intensity: 23 MFI
[12]; [29]
  fluorescence intensity: 27.5 MFI
[12]; [22]
  fluorescence intensity: 38.8 MFI
[12]; [23]
  fluorescence intensity: 72.8 MFI
[13]; [24]
  fluorescence intensity: 23 MFI
[13]; [25]
  fluorescence intensity: 22.5 MFI
[13]; [26]
  fluorescence intensity: 23 MFI
[13]; [27]
  fluorescence intensity: 32.5 MFI
[13]; [28]
  fluorescence intensity: 94.2 MFI
[13]; [29]
  fluorescence intensity: 576 MFI
[13]; [22]
  fluorescence intensity: 1250 MFI
[13]; [23]
  fluorescence intensity: 1700 MFI
[14]; [24]
  fluorescence intensity: 13.5 MFI
[14]; [25]
  fluorescence intensity: 14 MFI
[14]; [26]
  fluorescence intensity: 14 MFI
[14]; [27]
  fluorescence intensity: 15.8 MFI
[14]; [28]
  fluorescence intensity: 41.8 MFI
[14]; [29]
  fluorescence intensity: 465 MFI
[14]; [22]
  fluorescence intensity: 1260 MFI
[14]; [23]
  fluorescence intensity: 1750 MFI
[15]; [24]
  fluorescence intensity: 14.5 MFI
[15]; [25]
  fluorescence intensity: 15.5 MFI
[15]; [26]
  fluorescence intensity: 15 MFI
[15]; [27]
  fluorescence intensity: 22 MFI
[15]; [28]
  fluorescence intensity: 47.5 MFI
[15]; [29]
  fluorescence intensity: 468 MFI
[15]; [22]
  fluorescence intensity: 1360 MFI
[15]; [23]
  fluorescence intensity: 2010 MFI
[16]; [24]
  fluorescence intensity: 15.5 MFI
[16]; [25]
  fluorescence intensity: 14 MFI
[16]; [26]
  fluorescence intensity: 17 MFI
[16]; [27]
  fluorescence intensity: 20.5 MFI
[16]; [28]
  fluorescence intensity: 66 MFI
[16]; [29]
  fluorescence intensity: 542 MFI
[16]; [22]
  fluorescence intensity: 1300 MFI
[16]; [23]
  fluorescence intensity: 1930 MFI
[17]; [24]
  fluorescence intensity: 19.5 MFI
[17]; [25]
  fluorescence intensity: 19.2 MFI
[17]; [26]
  fluorescence intensity: 20.2 MFI
[17]; [27]
  fluorescence intensity: 33.2 MFI
[17]; [28]
  fluorescence intensity: 148 MFI
[17]; [29]
  fluorescence intensity: 657 MFI
[17]; [22]
  fluorescence intensity: 1170 MFI
[17]; [23]
  fluorescence intensity: 1430 MFI
[18]; [24]
  fluorescence intensity: 20 MFI
[18]; [25]
  fluorescence intensity: 20 MFI
[18]; [26]
  fluorescence intensity: 20 MFI
[18]; [27]
  fluorescence intensity: 40.5 MFI
[18]; [28]
  fluorescence intensity: 200 MFI
[18]; [29]
  fluorescence intensity: 1340 MFI
[18]; [22]
  fluorescence intensity: 2540 MFI
[18]; [23]
  fluorescence intensity: 3060 MFI
[19]; [24]
  fluorescence intensity: 14.5 MFI
[19]; [25]
  fluorescence intensity: 13.8 MFI
[19]; [26]
  fluorescence intensity: 15 MFI
[19]; [27]
  fluorescence intensity: 19 MFI
[19]; [28]
  fluorescence intensity: 42.8 MFI
[19]; [29]
  fluorescence intensity: 106 MFI
[19]; [22]
  fluorescence intensity: 158 MFI
[19]; [23]
  fluorescence intensity: 212 MFI
[20]; [24]
  fluorescence intensity: 13 MFI
[20]; [25]
  fluorescence intensity: 13.5 MFI
[20]; [26]
  fluorescence intensity: 13 MFI
[20]; [27]
  fluorescence intensity: 19 MFI
[20]; [28]
  fluorescence intensity: 59.8 MFI
[20]; [29]
  fluorescence intensity: 435 MFI
[20]; [22]
  fluorescence intensity: 965 MFI
[20]; [23]
  fluorescence intensity: 1360 MFI
[21]; [24]
  fluorescence intensity: 20.5 MFI
[21]; [25]
  fluorescence intensity: 19 MFI
[21]; [26]
  fluorescence intensity: 19.5 MFI
[21]; [27]
  fluorescence intensity: 25.5 MFI
[21]; [28]
  fluorescence intensity: 62.2 MFI
[21]; [29]
  fluorescence intensity: 279 MFI
